Source: the supplement of paper PMC5407854, “Inhibitor of ppGalNAc-T3-mediated O-glycosylation blocks cancer cell invasiveness and lowers FGF23 levels” (eLife, 2017)
The other results are listed elsewhere or left out. Most values lie at the level of the controls, where differences are scatter.

Tests used:
ppGalNAc-T3 sensor = assay: T3 sensor activation Q score (MG/GFP ratio z-score vs DMSO controls) (SD units); higher = more sensor activation (inhibition of ppGalNAc-T3 glycosylation); conditions: HEK293 sensor cells; 10 µM; 6 h
Method: (§1)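 Cells were treated with compound at 10 uM for 6 h, then MG/GFP ratio was read by flow cytometry (10,000 cells per well, duplicate wells). Q = (R - R_neg)/SD_neg relative to DMSO vehicle controls; the signal rises when the glycosyltransferase is inhibited.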

ppGalNAc-T2 sensor = assay: T2 sensor activation Q score (MG/GFP ratio z-score vs DMSO controls) (SD units); higher = more sensor activation (inhibition of ppGalNAc-T2 glycosylation); conditions: HEK293 sensor cells; 10 µM; 6 h
Method: as §1

Compound	T3 sensor activation Q score (ppGalNAc-T3 sensor)	T2 sensor activation Q score (ppGalNAc-T2 sensor)
CN1CCN(Cc2ccc3c(c2)Cc2ccccc2-3)CC1	2.48	-0.845
CCN(CC)c1ccc(Nc2nc(-c3ccncc3)cs2)cc1	-0.42	-0.645
O=C(Nc1cccc(F)c1)C12CC3CC(CC(C3)C1)C2	-0.825	0.27
CNCC(O)COc1ccc(C)cc1C (stereo unspecified)	0.435	0.785
COc1ccc(CN2CCSCC2)c(OC)c1	0.66	-0.165
COc1ccc(OC)c(CN2CCC(O)CC2)c1	0.15	0.155
O=C(NCc1ccncc1)c1cccs1	-0.595	-0.91
CCOc1cc(CN2CCCC(C(=O)N(CC)CC)C2)ccc1O (stereo unspecified)	-0.16	0.325
CCOC(=O)N1CCN(Cc2cc(C)ccc2C)CC1	0.035	0.665
Fc1cccc(CN2CCN(c3ccccn3)CC2)c1	-0.155	0.155
CCOC(=O)N1CCN(Cc2cccc(F)c2)CC1	0.595	0.42
Cc1ccc2c(S(=O)(=O)O)ccc(O)c2n1	0.5	-1.05
CN1CCN(C(=O)c2cc(-c3ccccc3)nc3ccccc23)CC1	0.435	0.155
CC1(C)CC(=O)C2=C(C1)Nc1ccccc1NC2c1cccc([N+](=O)[O-])c1 (stereo unspecified)	0.105	-1.04
O=C1CC(NCc2ccccc2)C(=O)N1c1cccc(Cl)c1 (stereo unspecified)	0.485	-1.2
NC(=O)C(=O)Nc1ccc(Cl)cc1	0.4	-0.96
Cn1c(=O)c(Cl)c(O)c2ccccc21	0.305	-0.07
O=C(Nc1cccc(Cl)c1)N1CCN(c2ccc([N+](=O)[O-])cc2)CC1	0.24	-0.445
CC1(C)CC(=O)C=C(Nc2ccccc2N)C1	0.65	0.015
Cc1ccc(S(=O)(=O)n2ccc(C)n2)cc1	2.6	1.86
O=C1c2cccc([N+](=O)[O-])c2C(=O)N1c1nccs1	-0.475	-0.645
Cc1ccsc1CN1CCN(c2ccc([N+](=O)[O-])cc2)CC1	0.05	0.6
Cc1nn(C)c(C)c1NC(=O)c1ccnn1C	0.43	0.575
O=C(O)c1cc(C2CC2)nc2ccccc12	-0.875	-0.85
CCN(CC)C(=O)C1CCCN(Cc2cccc(Br)c2)C1 (stereo unspecified)	-0.235	-0.64
COc1cc(OC)c(OC)cc1CN1CCN(c2cccc(Cl)c2)CC1	0.355	-0.065
CN1CCCN(Cc2ccc(Cl)c(Cl)c2)CC1	0.315	1.21
CCCCOc1ccc(C2(C(=O)O)CCCC2)cc1	0.6	0.15

2 records picked at random from those above:
Compound	T3 sensor activation Q score (ppGalNAc-T3 sensor)	T2 sensor activation Q score (ppGalNAc-T2 sensor)
Cc1ccc2c(S(=O)(=O)O)ccc(O)c2n1	0.5	-1.05
O=C1CC(NCc2ccccc2)C(=O)N1c1cccc(Cl)c1 (stereo unspecified)	0.485	-1.2
